{
  "source": "patent US11976334B2",
  "about": "“Inhibitor of ATR kinase for use in a method of treating a hyper-proliferative disease” (Bayer Aktiengesellschaft, priority 2017, dated 2024)",
  "system": "isogenic cell lines derived from DT40 chicken lymphoma cells",
  "data": [
    {"smiles": "C[C@@H]1COCCN1c1cc(-c2ccnn2C)c2ccnc(-c3ccn[nH]3)c2n1", "note": "[Compound A, 2-[(3R)-3-methylmorpholin-4-yl]-4-(1-methyl-1H-pyrazol-5-yl)-8-(1H-pyrazol-5-yl)-1,7-naphthyridine]", "values": [
      {"measurement": "sensitivity towards Compound A as compared to wild-type cells", "setting": "DT40 cells deficient in TP53BP1, RAD9A, RAD17, H2AFX, RAD52, BRCA1, BRCA2, UBE2N, PCNA, PARP1, TDP2, FANCD2, FANCG, POLL, POLL/POLB, REV3L, FEN1, XPA, ERCC5 or BLM", "value": "≥ 2", "unit": "fold"},
      {"measurement": "strongest effects (sensitization versus wild-type)", "setting": "PCNA, FEN1, H2AFX, BRCA1 deficient DT40 cells", "value": "> 8", "unit": "fold"},
      {"measurement": "strong sensitizations versus wild-type", "setting": "RAD17, PARP1, FANCD2, UBE2N, RAD9A, REV3L, TP53BP1, ERCC5 and BLM deficient DT40 cells", "value": "> 4", "unit": "fold"}
    ]}
  ]
}
